{"source": "paper PMC6389977", "target": "full-length DENV2 NS3 protein (bait, pGBKT7-NS3) (dengue virus 2, New Guinea C (NGC) strain) (UniProt P14340)", "assay": "two-hybrid", "note": "No constants are given. Whether binding was seen depends on the method and setting. Some binding calls cover weakened binding; strength is not graded here.", "data": [{"binder": "glioblastoma amplified sequence (protein, UniProt O75323-1 1-286) MAARVLRARGAAWAGGLLQRAAPCSLLPRLRTWTSSSNRSREDSWLKSLFVRKVDPRKDAHSNLLAKKETSNLYKLQFHNVKPECLEAYNKICQEVLPKIHEDKHYPCTLVGTWNTWYGEQDQAVHLWRYEGGYPALTEVMNKLRENKEFLEFRKARSDMLLSRKNQLLLEFSFWNEPVPRSGPNIYELRSYQLRPGTMIEWGNYWARAIRFRQDGNEAVGGFFSQIGQLYMVHHLWAYRDLQTREDIRNAAWHKHGWEELVYYTVPLIQEMESRIMIPLKTSPLQ", "values": [{"measurement": "binding", "value": "binds"}]}]}
